As a reminder, the Ki is a dissociation constant, usually derived from enzyme kinetics or from competition with a known ligand.

The chains behind the UniProt entries cited, without tags or fusion partners. Residues count along the entry.
UniProt P04191, 1-994 isoform P04191-2: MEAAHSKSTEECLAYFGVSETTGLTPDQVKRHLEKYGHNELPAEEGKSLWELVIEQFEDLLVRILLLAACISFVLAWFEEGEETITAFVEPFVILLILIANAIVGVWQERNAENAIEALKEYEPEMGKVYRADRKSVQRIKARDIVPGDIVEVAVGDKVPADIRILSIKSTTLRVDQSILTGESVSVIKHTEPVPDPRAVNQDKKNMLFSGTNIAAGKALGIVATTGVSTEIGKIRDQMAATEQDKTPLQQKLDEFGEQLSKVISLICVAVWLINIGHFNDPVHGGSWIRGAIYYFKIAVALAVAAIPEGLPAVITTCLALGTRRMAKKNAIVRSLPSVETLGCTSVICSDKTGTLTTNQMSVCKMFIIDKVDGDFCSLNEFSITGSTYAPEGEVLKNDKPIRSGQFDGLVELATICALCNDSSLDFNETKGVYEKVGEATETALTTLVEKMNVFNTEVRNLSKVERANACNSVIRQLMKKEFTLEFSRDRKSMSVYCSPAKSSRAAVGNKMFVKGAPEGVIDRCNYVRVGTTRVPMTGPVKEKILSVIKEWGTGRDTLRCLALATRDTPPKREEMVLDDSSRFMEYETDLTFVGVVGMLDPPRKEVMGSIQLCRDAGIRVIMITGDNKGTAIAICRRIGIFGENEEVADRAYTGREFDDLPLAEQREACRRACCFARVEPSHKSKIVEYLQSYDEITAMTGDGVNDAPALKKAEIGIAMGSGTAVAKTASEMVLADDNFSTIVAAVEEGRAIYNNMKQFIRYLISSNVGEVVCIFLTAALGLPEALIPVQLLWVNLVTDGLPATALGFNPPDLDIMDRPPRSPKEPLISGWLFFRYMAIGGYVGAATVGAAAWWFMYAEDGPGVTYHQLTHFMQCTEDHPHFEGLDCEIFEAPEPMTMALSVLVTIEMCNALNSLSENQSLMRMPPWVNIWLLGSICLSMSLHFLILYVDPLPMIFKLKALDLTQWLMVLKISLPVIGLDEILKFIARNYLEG

The target of one assay is SERCA (Oryctolagus cuniculus, UniProt P04191). The settings on record: 10 μM free calcium, 20 minute incubation. From the text: An enzyme-coupled, NADH-linked ATPase assay was used to measure SERCA ATPase activity in 96-well microplates.
Assay [1] concerns the target two-color SERCA (2CS) biosensor (SERCA2a) (UniProt P16615). Nature of the assay: 2CS FRET biosensor in living HEK293 cells, spectral mode (spectral unmixing plate reader). Conditions: NCC screen, reproducible and dose-dependent FRET decrease. The format is cell-based, human. As for the experimental part: HEK293 cells were maintained in phenol-red-free DMEM from Gibco (Waltham, Mass.) supplemented with 2 mM GlutaMAX (Gibco), 10% fetal bovine serum (FBS) from Atlanta Biologicals (Laweranceville, Ga.), and 1 IU/mL penicillin/streptomycin (Gibco) and grown at 37° C. with 5% CO2. Stable clones expressing the FRET biosensors and corresponding donor- and acceptor-labeled control cell lines were established as described previously. Briefly, cells were transfected with the recombinant DNA following established protocols lipofectaimine 3000 from Invitrogen (Carlsbad, Calif.). […] The stability of each clone was assessed by flow cytometry and confocal microscopy (data not shown). […] Cell viability was assessed using trypan blue. […]
In its spectral unmixing plate reader (SUPR) mode, the instrument provides direct high-throughput detection of the complete fluorescence emission spectrum, (emission vs wavelength), with excitation provided by a 473 nm continuous wave laser. Spectra are recorded using a grating-based fiber optic input spectrograph equipped with linear-array CCD detector (Sony ILX511B). The recorded wavelength range in these experiments spanned the entire visible spectrum, but only the 400-700 nm range was used in the data analysis. In lifetime mode, the full nanosecond-resolved fluorescence emission waveform is acquired following excitation with a 473 nm pulsed microchip laser. […]

For the molecule `Clc1ccc(COC(Cn2ccnc2)c2ccc(Cl)cc2Cl)c(Cl)c1` (stereo not drawn) [miconazole], at SERCA (eight-point curves in triplicate), the Ki came to 2800 nM. Besides, the “inhibition of SERCA ATPase activity” value on SERCA (maximal) is 92.4%.

On to `Clc1ccc(CO/N=C(\Cn2ccnc2)c2ccc(Cl)cc2Cl)c(Cl)c1` [oxiconazole], for which the “2CS FRET hit identification” value in assay [1] is “hits”.

These data come from patent US20210255195A1, “HIGH PRECISION SPECTRAL FRET ASSAYS” (Regents of the University of Minnesota, priority 2017, published 2021).
